Measured values published in article PMC8973694.
Results are given in words; binding and its absence hold for the method and conditions named. Binding seen in cells or lysates may run through a third protein. Some binding calls cover weakened binding; strength is not graded here.

Chains of the proteins cited; added tags and fusions are not shown. Residues count along the entry.
UniProt O60603: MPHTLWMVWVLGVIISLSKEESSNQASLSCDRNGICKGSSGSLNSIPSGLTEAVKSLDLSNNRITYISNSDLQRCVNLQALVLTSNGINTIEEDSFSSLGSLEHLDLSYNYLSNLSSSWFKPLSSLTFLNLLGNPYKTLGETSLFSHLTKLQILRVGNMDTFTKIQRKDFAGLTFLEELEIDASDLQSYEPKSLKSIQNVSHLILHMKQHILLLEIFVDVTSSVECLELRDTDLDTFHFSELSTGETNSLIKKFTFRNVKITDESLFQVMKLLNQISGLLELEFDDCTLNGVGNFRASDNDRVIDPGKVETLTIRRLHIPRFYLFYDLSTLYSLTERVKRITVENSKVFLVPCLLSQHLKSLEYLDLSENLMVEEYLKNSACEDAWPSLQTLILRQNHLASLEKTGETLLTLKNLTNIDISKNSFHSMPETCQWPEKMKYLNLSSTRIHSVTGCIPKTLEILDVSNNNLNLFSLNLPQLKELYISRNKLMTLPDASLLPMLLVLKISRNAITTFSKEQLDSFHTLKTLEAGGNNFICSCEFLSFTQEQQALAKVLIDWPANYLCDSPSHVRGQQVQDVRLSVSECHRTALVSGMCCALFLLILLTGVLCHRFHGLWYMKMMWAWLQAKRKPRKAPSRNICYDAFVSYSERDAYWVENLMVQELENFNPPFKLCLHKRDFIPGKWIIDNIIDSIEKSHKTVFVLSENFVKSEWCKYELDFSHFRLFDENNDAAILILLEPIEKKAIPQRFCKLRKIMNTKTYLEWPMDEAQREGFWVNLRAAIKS
UniProt O00206, residues 24-839: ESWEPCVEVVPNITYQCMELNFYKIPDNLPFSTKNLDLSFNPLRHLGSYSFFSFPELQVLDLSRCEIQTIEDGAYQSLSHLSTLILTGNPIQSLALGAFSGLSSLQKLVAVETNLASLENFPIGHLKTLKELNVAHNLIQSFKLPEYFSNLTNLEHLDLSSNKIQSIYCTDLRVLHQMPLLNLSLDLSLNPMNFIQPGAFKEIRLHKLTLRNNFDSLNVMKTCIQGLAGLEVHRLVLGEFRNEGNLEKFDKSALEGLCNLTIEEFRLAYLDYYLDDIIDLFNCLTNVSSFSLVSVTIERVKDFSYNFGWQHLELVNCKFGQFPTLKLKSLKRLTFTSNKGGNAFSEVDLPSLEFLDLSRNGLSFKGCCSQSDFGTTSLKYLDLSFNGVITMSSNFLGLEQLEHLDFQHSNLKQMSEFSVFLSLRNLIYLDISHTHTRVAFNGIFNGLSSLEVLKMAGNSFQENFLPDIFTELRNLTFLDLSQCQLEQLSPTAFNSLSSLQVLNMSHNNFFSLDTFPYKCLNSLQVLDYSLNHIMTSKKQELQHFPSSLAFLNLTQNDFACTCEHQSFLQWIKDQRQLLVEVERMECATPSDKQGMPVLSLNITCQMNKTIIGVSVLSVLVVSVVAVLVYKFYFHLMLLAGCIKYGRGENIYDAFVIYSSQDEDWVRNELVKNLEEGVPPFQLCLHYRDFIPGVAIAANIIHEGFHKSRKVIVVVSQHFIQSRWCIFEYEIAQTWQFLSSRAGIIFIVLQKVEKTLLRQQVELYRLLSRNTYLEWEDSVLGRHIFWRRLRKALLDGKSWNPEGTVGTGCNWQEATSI
UniProt Q9NP99, residues 21-234: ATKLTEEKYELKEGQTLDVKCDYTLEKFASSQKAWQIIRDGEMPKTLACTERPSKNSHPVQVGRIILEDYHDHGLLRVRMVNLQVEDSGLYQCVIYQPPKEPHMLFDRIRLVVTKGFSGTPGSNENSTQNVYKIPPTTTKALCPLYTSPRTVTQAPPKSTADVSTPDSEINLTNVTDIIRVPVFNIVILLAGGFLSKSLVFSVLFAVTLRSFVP

Legend:
[1] = molecular target: Toll-like receptor 2 (human (endogenous in HEnEpCs)) (UniProt O60603); experiment: co-IP; HEnEpC lysate (section heading: LPS-challenged HEnEpCs); cold lysis buffer for IP; anti-TREM1, anti-TLR2, anti-TLR4 or control IgG (1 µg) plus Protein A/G beads; beads washed three times with PBS; Western blot
[2] = molecular target: Toll-like receptor 4 (human (endogenous in HEnEpCs)) (UniProt O00206); experiment: as above

binding [1]: binds | binding [2]: binds
Substance: Triggering receptor expressed on myeloid cells 1 (from UniProt Q9NP99 21-234)
